Measured values taken from patent US11230581B2, “Peptides and combination of peptides for use in immunotherapy against ovarian cancer and other cancers” (Immatics Biotechnologies GmbH, priority 2015, dated 2022).

How the values were obtained:
[1] = tested on: additional tumor types; test: LC-MS detection and over-presentation of the peptides on additional tumor types, cell lines and primary cultures; set-up: species or system human; conditions: for Other relevant organs/ cancerous diseases: Table 4A: additional tumor types on which the peptide was found, over-presented on more than 5% of measured tumor samples, or presented on more than 5% with ratio of geometric means tumor vs normal tissues larger than 3; for Additional organs/cancerous diseases: additional tumor types with over-presentation on more than 5% of the measured tumor samples, or presentation on more than 5% with ratio of geometric means tumor vs normal tissues larger than 3
[2] = tested on: ovarian cancer samples; test: Relative LC-MS quantitation of HLA-presented peptides: presentation and over-presentation on ovarian cancer vs a panel of normal tissues (presentation score); set-up: species or system human; key: +++: very highly over-presented on tumors compared to a panel of normal tissues; ++: highly over-presented on tumors compared to a panel of normal tissues; +: over-presented on tumors compared to a panel of normal tissues; conditions: over-presentation on tumors compared to a panel of normal tissues

Substance	Other relevant organs/ cancerous diseases [1]	Peptide Presentation (presentation score) [2]	Additional organs/cancerous diseases [1]
279 (ALWGGTQPLL; listed as Homo sapiens) [compound 279]	SCLC, Brain Cancer, Esophageal Cancer	++	
280 (VLPDPEVLEAV; listed as Homo sapiens) [compound 280]	Prostate, Leukemia	+	Gallbladder Cancer and Bile Duct Cancer, NHL, SCLC
281 (ILRESTEEL; listed as Homo sapiens) [compound 281]		+	Melanoma
282 (LLADVVPTT; listed as Homo sapiens) [compound 282]	Leukemia, Melanoma	+	CLL, Uterine Cancer, AML, NHL, HNSCC
285 (QLLHVGVTV; listed as Homo sapiens) [compound 285]	NSCLC, RCC, CRC, Leukemia, Esophageal Cancer	+	CLL, Melanoma, Urinary Bladder Cancer, AML, NHL
288 (NLINEINGV; listed as Homo sapiens) [compound 288]	SCLC, PrC, Esophageal Cancer, Urinary bladder Cancer, Uterine Cancer	+++	
289 (VLLEIEDLQV; listed as Homo sapiens) [compound 289]	Leukemia, BrCa	+	CLL, NHL
292 (LLWEAGSEA; listed as Homo sapiens) [compound 292]	Brain Cancer, PC	+	Melanoma
296 (FMEGAIIYV; listed as Homo sapiens) [compound 296]	SCLC, Leukemia	++	
298 (VMITKLVEV; listed as Homo sapiens) [compound 298]	Urinary bladder Cancer	++	Gallbladder Cancer and Bile Duct Cancer
303 (AILPQLFMV; listed as Homo sapiens) [compound 303]	NSCLC, RCC, CRC, BrCa, Esophageal Cancer, Urinary bladder Cancer	+	Melanoma
307 (ALPVSLPQI; listed as Homo sapiens) [compound 307]		+	CLL, BRCA, Melanoma, AML, NHL, HNSCC
308 (SQYSGQLHEV; listed as Homo sapiens) [compound 308]	Leukemia, Gallbladder, Bile duct	+	CLL
311 (RLYTGMHTV; listed as Homo sapiens) [compound 311]	RCC, CRC, PC, Esophageal Cancer, Urinary bladder Cancer	+	SCLC, BRCA, NHL, HNSCC
315 (YLQDVVEQA; listed as Homo sapiens) [compound 315]	SCLC, Endometrium	++	
318 (GLINTGVLSV; listed as Homo sapiens) [compound 318]	Colon, Rectum	+	SCLC, CLL, NHL, HNSCC
319 (SLEPQIQPV; listed as Homo sapiens) [compound 319]	NSCLC, CRC, Leukemia, Esophageal Cancer	+	HCC, CLL, BRCA, Melanoma, Gallbladder Cancer and Bile Duct Cancer, AML, HNSCC
320 (KMFEFVEPLL; listed as Homo sapiens) [compound 320]	Colon, Rectum	+	SCLC, Brain Cancer, BRCA, Melanoma, Urinary Bladder Cancer, Uterine Cancer, Gallbladder Cancer and Bile Duct Cancer, AML, HNSCC

Substance	Other relevant organs/ cancerous diseases [1]	Peptide Presentation (presentation score) [2]	Additional organs/cancerous diseases [1]
321 (GLFEDVTQPGILL; listed as Homo sapiens) [compound 321]	Leukemia, Melanoma	++	CLL
322 (TLMTSLPAL; listed as Homo sapiens) [compound 322]		++	CLL, BRCA, Melanoma, Uterine Cancer, Gallbladder Cancer and Bile Duct Cancer, AML, NHL
323 (IQIGEETVITV; listed as Homo sapiens) [compound 323]	NSCLC, SCLC, PrC, Leukemia, Melanoma, Esophageal Cancer, Uterine Cancer, Gallbladder Cancer, Bile Duct Cancer	+	CRC, CLL, BRCA
325 (FIMPATVADATAV; listed as Homo sapiens) [compound 325]	Leukemia	+++	CLL, BRCA, Melanoma, Uterine Cancer, NHL
327 (GLAPFTEGISFV; listed as Homo sapiens) [compound 327]	HCC	++	NSCLC, Gallbladder Cancer and Bile Duct Cancer
328 (ALNDQVFEI; listed as Homo sapiens) [compound 328]	SCLC, Brain Cancer, HCC, Esophageal Cancer, Uterine Cancer	+	AML
331 (KVDTVWVNV; listed as Homo sapiens) [compound 331]	SCLC, Leukemia, BrCa, Melanoma, Urinary bladder Cancer	+	CLL, Gallbladder Cancer and Bile Duct Cancer, HNSCC
332 (YLISELEAA; listed as Homo sapiens) [compound 332]	Brain Cancer, HCC, PC, PrC, Esophageal Cancer, Uterine Cancer	+	RCC, GC, BRCA, Melanoma
333 (FLPDANSSV; listed as Homo sapiens) [compound 333]	NSCLC, Brain Cancer, PrC, Leukemia, BrCa, Esophageal Cancer, Urinary bladder Cancer	++	HCC, Melanoma
334 (TLTKVLVAL; listed as Homo sapiens) [compound 334]	Urinary bladder Cancer	+	CLL
338 (SVLEDPVHAV; listed as Homo sapiens) [compound 338]	NSCLC, SCLC, HCC, Melanoma	+	BRCA, Esophageal Cancer, Uterine Cancer, Gallbladder Cancer and Bile Duct Cancer, NHL
341 (SQIALNEKLVNL; listed as Homo sapiens) [compound 341]	SCLC, HCC	+	Urinary Bladder Cancer
342 (HIYDKVMTV; listed as Homo sapiens) [compound 342]	Colon, Rectum	+	Esophageal Cancer, Gallbladder Cancer and Bile Duct Cancer
343 (SLLEVNEESTV; listed as Homo sapiens) [compound 343]	NSCLC, Leukemia, Melanoma	+	CLL
345 (VIWKALIHL; listed as Homo sapiens) [compound 345]	SCLC	++	NSCLC, Melanoma, NHL
346 (LLDSKVPSV; listed as Homo sapiens) [compound 346]	SCLC, HCC, PC, Esophageal Cancer, Urinary bladder Cancer, Gallbladder Cancer, Bile Duct Cancer	++	HNSCC
348 (ILLDVKTRL; listed as Homo sapiens) [compound 348]	NSCLC, CRC, Esophageal Cancer, Urinary bladder Cancer	+++	Melanoma, Gallbladder Cancer and Bile Duct Cancer, HNSCC
